Test in all cases: log2 fold change, soluble protein after heating vs DMSO (PISA); higher = thermal stabilisation; K562 cells, 10 uM, 30 min; active = over 0.2 and 3.5 SD of the protein, either way, in both replicates (recomputed)
Compound in one test: C1COCCN1CCN2C3=CC=CC=C3N=C2NC(=O)C4=CC(=CC=C4)[N+](=O)[O-] [IRAK-1-4 Inhibitor I]
Put shortly: (§1)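 Values are thermal stability changes relative to control samples and are taken from duplicates. They are stated as log2 fold changes. Before quantification by TMTpro 16plex LC-MS/MS with equalised channel sums, K562 cells at 2×10^6 cells/mL were treated with 10 μM compound for 30 min, heated in aliquots for 3 min across 48°C-58°C, pooled, extracted in PBS with 0.5% NP-40 at 4°C, and centrifuged at 21,000xg for 90 min to give the soluble supernatant.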

The chains behind the UniProt entries cited, without tags or fusion partners. Where a name states a change or a piece, a line headed by the entry shows the natural chain unless it says otherwise.
UniProt P52630: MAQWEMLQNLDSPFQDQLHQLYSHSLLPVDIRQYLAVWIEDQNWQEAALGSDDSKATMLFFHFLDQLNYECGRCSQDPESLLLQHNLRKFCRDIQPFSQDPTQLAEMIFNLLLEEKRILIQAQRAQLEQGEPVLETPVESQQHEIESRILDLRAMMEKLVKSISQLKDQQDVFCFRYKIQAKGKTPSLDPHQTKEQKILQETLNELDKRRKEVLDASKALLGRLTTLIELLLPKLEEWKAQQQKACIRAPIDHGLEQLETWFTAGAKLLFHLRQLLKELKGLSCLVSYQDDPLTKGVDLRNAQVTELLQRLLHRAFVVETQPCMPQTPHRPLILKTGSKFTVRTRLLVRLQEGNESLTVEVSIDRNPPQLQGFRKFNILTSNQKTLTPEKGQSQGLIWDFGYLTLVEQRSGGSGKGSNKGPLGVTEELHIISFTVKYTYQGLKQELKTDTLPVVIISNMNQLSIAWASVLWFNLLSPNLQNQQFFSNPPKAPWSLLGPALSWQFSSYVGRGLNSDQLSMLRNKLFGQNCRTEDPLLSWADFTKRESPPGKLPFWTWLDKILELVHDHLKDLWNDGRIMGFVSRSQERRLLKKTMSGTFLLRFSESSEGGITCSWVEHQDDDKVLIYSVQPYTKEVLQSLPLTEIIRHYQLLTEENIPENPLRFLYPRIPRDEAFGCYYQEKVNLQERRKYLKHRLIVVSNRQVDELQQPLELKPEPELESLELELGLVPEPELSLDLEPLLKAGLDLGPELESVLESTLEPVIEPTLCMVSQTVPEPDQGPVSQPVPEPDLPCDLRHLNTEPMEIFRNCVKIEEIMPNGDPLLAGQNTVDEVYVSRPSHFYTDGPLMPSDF
UniProt P15907: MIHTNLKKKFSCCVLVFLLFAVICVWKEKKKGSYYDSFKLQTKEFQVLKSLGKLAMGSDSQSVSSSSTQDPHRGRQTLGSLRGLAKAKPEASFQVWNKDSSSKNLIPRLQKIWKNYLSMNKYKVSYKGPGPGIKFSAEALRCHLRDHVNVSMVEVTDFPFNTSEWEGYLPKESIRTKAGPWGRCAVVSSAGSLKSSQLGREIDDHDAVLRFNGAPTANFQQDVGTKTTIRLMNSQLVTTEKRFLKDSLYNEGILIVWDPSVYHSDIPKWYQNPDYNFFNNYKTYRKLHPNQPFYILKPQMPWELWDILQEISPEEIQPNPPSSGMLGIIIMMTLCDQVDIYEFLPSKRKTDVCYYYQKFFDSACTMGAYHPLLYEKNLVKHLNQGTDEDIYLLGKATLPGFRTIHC
UniProt Q9UHB9: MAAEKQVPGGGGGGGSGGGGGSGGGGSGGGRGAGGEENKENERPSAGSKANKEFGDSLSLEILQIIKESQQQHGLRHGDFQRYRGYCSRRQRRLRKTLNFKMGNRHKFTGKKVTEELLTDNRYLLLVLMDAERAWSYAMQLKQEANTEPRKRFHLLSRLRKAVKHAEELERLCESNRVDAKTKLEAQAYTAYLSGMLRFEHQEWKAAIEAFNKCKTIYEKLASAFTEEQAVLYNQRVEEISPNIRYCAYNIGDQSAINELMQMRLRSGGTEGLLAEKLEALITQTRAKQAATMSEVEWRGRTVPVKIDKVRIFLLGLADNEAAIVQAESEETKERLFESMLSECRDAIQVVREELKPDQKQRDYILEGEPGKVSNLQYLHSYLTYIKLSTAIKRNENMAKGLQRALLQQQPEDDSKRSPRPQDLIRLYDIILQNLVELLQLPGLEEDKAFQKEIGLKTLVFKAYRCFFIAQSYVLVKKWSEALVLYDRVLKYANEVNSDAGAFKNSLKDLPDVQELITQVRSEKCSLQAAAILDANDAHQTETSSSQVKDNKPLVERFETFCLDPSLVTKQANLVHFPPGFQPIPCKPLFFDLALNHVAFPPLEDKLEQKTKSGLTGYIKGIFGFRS
UniProt O00506, whole entry, looked up: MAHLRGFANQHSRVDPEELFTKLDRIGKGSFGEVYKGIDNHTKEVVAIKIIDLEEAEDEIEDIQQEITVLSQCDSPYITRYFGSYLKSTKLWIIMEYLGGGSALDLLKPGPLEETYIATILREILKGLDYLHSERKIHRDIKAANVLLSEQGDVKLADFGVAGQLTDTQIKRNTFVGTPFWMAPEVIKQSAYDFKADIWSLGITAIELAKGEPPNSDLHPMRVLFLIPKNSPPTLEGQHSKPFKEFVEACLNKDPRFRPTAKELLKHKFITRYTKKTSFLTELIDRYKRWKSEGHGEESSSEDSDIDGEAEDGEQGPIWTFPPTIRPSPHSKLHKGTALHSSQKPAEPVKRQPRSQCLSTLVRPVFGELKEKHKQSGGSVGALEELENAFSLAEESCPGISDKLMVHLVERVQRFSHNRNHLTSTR
UniProt Q9BYN0: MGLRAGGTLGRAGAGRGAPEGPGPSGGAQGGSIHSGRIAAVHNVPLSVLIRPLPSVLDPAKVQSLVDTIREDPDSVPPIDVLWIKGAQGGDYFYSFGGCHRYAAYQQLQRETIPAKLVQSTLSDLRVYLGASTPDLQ
UniProt P05455: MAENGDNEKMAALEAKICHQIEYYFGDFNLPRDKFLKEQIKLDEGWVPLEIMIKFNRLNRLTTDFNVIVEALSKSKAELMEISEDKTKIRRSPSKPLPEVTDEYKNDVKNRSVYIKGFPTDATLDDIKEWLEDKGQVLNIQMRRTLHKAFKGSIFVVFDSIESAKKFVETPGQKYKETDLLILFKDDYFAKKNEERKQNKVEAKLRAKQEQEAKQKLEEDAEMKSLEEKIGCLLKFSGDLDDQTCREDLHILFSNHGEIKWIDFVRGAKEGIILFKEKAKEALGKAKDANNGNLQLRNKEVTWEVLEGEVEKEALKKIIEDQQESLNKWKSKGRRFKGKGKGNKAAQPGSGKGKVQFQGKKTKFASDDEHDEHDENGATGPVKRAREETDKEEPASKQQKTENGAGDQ
UniProt Q9BWG4: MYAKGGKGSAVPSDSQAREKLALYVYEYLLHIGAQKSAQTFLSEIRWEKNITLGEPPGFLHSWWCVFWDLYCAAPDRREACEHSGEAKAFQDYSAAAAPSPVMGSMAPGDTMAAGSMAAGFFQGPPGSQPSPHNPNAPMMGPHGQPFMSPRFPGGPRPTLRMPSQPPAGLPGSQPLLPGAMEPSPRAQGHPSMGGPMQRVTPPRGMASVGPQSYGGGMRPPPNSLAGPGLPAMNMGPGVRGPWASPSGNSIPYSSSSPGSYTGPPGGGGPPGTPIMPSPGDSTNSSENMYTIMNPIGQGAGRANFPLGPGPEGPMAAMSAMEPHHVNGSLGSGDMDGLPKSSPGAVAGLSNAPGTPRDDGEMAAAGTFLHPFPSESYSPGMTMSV
UniProt Q08170: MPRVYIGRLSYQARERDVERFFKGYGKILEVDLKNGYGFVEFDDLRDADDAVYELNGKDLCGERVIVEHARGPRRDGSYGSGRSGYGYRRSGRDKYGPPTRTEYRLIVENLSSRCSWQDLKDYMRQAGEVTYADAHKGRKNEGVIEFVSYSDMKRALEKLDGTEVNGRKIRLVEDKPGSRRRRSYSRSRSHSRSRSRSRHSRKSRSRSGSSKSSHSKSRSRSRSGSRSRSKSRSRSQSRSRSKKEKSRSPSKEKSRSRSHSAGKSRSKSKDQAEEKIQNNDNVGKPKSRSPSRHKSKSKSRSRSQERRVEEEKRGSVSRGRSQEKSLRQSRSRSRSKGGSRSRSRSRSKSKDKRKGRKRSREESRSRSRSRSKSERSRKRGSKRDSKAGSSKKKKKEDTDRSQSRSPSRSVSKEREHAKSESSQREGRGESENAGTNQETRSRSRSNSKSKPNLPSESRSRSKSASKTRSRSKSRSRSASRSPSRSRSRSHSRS
UniProt Q8N1F8: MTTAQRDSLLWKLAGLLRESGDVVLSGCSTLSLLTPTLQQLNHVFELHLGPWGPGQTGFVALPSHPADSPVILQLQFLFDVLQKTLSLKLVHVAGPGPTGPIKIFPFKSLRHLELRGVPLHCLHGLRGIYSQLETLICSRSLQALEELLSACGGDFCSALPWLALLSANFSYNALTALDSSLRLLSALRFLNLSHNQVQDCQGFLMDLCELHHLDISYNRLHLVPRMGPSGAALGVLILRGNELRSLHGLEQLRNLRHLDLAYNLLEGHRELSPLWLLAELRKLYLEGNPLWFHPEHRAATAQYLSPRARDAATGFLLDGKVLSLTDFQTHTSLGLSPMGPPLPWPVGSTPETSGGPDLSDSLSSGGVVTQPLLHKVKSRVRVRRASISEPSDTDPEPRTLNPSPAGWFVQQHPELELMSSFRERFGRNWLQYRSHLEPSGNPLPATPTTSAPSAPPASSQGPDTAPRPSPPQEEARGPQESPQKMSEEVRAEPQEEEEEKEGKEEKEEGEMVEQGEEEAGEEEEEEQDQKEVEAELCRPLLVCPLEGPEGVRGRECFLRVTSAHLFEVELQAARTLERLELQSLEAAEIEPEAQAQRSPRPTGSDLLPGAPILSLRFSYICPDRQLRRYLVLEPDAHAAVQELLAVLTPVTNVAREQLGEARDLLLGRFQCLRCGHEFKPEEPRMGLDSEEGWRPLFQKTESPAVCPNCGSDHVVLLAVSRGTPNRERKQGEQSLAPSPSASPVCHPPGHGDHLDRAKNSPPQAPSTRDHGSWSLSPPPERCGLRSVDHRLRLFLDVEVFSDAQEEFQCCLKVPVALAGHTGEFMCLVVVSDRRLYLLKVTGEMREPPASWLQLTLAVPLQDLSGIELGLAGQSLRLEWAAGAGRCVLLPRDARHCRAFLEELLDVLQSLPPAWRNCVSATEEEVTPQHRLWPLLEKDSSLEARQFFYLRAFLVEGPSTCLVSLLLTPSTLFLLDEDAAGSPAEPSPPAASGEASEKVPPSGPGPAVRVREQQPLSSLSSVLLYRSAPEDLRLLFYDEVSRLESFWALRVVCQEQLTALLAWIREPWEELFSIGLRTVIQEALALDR
UniProt Q9Y5M8: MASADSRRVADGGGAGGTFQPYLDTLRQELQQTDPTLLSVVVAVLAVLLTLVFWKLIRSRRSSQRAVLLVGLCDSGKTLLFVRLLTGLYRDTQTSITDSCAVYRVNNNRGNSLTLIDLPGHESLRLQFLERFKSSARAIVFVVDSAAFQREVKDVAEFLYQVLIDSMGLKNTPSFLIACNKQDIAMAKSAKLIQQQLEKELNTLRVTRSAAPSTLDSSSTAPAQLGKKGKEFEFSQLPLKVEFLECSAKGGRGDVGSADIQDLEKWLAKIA
UniProt O95772: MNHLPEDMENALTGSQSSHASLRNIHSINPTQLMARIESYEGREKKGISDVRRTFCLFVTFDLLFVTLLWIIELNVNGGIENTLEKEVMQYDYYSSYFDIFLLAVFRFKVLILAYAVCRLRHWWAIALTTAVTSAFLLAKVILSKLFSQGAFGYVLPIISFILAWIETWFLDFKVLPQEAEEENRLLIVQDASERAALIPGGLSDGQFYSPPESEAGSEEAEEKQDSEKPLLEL
UniProt Q14849, whole entry, looked up: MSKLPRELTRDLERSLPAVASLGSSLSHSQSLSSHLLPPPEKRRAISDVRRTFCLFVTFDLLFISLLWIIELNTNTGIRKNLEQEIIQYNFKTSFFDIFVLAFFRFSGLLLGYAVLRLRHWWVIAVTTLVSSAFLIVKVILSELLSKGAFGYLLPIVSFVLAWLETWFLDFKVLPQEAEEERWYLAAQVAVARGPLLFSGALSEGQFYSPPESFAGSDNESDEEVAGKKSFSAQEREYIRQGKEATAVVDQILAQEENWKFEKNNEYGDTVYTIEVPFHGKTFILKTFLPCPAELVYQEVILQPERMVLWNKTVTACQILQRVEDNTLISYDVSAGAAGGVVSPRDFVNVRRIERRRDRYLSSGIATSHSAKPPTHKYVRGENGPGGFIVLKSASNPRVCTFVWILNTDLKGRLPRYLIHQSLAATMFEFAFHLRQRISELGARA

Compound in a further test: C=CC(=O)N1CCC[C@@H](n2nc(-c3ccc(Oc4ccccc4)cc3)c3c(N)ncnc32)C1 [ibrutinib]
Put shortly:
as §1

Compound in test [1]: CC(=O)c1cnc2ccc(-c3cc(Cl)c(O)c(Cl)c3)nc2c1N[C@H]1CC[C@H](CN(C)C)CC1
The procedure, abridged:
as §1

Compound in the next test: CC(C)(C)Cn1c(N)nc2ccc(-c3[nH]c(C(C)(C)C)nc3-c3ccc(F)cc3)nc21 [ralimetinib]
The procedure, abridged: as §1

Compound in test [2]: CC(C)C1=C2N=C(C=C(N2N=C1)NCC3=CC=CC=C3)NCCCCCCN
The procedure, abridged:
as §1

Compound in test [3]: CC(C)C[C@@H](C=O)NC(=O)[C@H](CC(C)C)NC(=O)[C@H](CC(C)C)NC(=O)OCc1ccccc1
The procedure, abridged:
as §1

Compound in another test: CC(C)N(C[C@H]1O[C@@H](n2cnc3c(N)ncnc32)[C@H](O)[C@@H]1O)[C@H]1C[C@@H](CCc2nc3cc(C(C)(C)C)ccc3[nH]2)C1 [pinometostat]
Put shortly: as §1

Compound in test [4]: CC1=C(C2=C(C=C1)C(=O)C3=CC=CC=C3N2CCCN)C
Put shortly: as §1

Compound in test [5]: CC(C)(O)CC(=O)NCCn1ccc2ncnc(Nc3ccc(Oc4cccc(C(F)(F)F)c4)c(Cl)c3)c21
Put shortly:
as §1

The other results are listed elsewhere or left out. Residues, ends and D or L forms follow the SMILES beside them. *: point of attachment. Cbz = O=C(OCc1ccccc1)*

Take STAT2 (UniProt P52630): the log2 fold change is inactive: -0.25 in the test with IRAK-1-4 Inhibitor I; inactive: 0.173 with ibrutinib; inactive: -0.014 in test [1]; inactive: 0.181 with ralimetinib; inactive: -0.622 in [2]; inactive: 0.215 in test [3]. For the same target, the log2 fold change is inactive: 0.448 with pinometostat and inactive: -0.017 in test [4].
Consider ST6GAL1 (UniProt P15907), for which the log2 fold change with IRAK-1-4 Inhibitor I was inactive: -0.01; with ibrutinib it was inactive: 0.002; in test [1] it was inactive: 0.021; in the test with ralimetinib, inactive: 0.041; in [5], inactive: 0.058; in [2], inactive: -0.051. The log2 fold change in [3] is inactive: -0.009; with pinometostat it was inactive: 0.024; in [4], inactive: 0.011.
SRP68 (UniProt Q9UHB9): the log2 fold change with IRAK-1-4 Inhibitor I was inactive: -0.118; with ibrutinib, inactive: -0.037; in [1] it was inactive: 0.014; in the test with ralimetinib, inactive: 0.071; in test [5] it was inactive: -0.065; in test [2], inactive: -0.272. The results for the log2 fold change (in test [3]; with pinometostat; in test [4]) were inactive: 0.065, inactive: 0.145 and active: -0.345, respectively.
Turning to STK25 (UniProt O00506), the log2 fold change in the test with IRAK-1-4 Inhibitor I is inactive: 0.051; with ibrutinib, inactive: -0.067; in [1], inactive: 0; in the test with ralimetinib it was inactive: 0.015; in test [5], inactive: -0.039; in [2], inactive: -0.02. Besides, the results for the log2 fold change (in test [3]; in the test with pinometostat; in test [4]) were inactive: 0.066, inactive: 0.034 and inactive: 0.08, respectively.
As to SRXN1 (UniProt Q9BYN0), the log2 fold change is inactive: -0.291 in the test with IRAK-1-4 Inhibitor I; inactive: -0.013 in the test with ibrutinib; inactive: 0.12 in test [1]; inactive: -0.134 with ralimetinib; inactive: -0.201 in [5]; inactive: -0.024 in [3]. Also, the log2 fold change with pinometostat is inactive: 0.187; in [4], inactive: -0.026.
Take SSB (UniProt P05455): the log2 fold change was inactive: -0.006 in the test with IRAK-1-4 Inhibitor I; inactive: -0.038 with ibrutinib; inactive: -0.209 in test [1]; inactive: 0.017 in the test with ralimetinib; inactive: 0.001 in test [5]; inactive: -0.038 in test [2]. Besides, the log2 fold change is inactive: 0.011 in [3], inactive: -0.005 with pinometostat and active: -0.474 in test [4].
On to STAB1 (UniProt Q9NY15), for which the log2 fold change is inactive: -0.064 in the test with IRAK-1-4 Inhibitor I; inactive: -0.103 with ibrutinib; inactive: -0.158 with ralimetinib; inactive: 0.232 in [5]; inactive: 0.019 in test [2]; inactive: -0.005 in test [3]. Also, the log2 fold change with pinometostat was inactive: -0.021.
Consider SSBP4 (UniProt Q9BWG4), for which the log2 fold change was inactive: 0.013 in the test with IRAK-1-4 Inhibitor I; inactive: 0.001 with ibrutinib; inactive: -0.081 in [1]; inactive: -0.131 with ralimetinib; inactive: 0.058 in [2]; inactive: 0.011 in test [3]. Moreover, the log2 fold change with pinometostat is inactive: 0.09; in test [4] it was inactive: 0.015.
Consider SRSF4 (UniProt Q08170), for which the log2 fold change with IRAK-1-4 Inhibitor I was inactive: -0.306; with ibrutinib, inactive: 0.069; in test [1], inactive: -0.261; with ralimetinib it was inactive: 0.125; in test [5], inactive: 0.088; in test [2], inactive: -0.174. Besides, the log2 fold change was inactive: 0.019 in test [3], inactive: 0.126 with pinometostat and inactive: -0.379 in test [4].
For the target STK11IP (UniProt Q8N1F8), the log2 fold change was inactive: -0.248 in the test with IRAK-1-4 Inhibitor I; inactive: 0.027 with ibrutinib; inactive: -0.02 in [1]; inactive: -0.131 in [5]; active: -0.932 in test [2]; inactive: 0.168 with pinometostat. In addition, the log2 fold change in [4] was inactive: -0.183.
Regarding SRPRB (UniProt Q9Y5M8), the log2 fold change with IRAK-1-4 Inhibitor I is inactive: -0.021; with ibrutinib, inactive: 0.004; in [1], inactive: -0.014; with ralimetinib, inactive: 0.034; in test [5], inactive: -0.055; in test [2], inactive: -0.036. Further, the log2 fold change in test [3] is inactive: -0.051; with pinometostat it was inactive: -0.026; in [4] it was active: 0.292.
Take STARD3NL (UniProt O95772): the log2 fold change in the test with IRAK-1-4 Inhibitor I was inactive: 0.014; with ibrutinib, inactive: -0.023; in test [1], inactive: -0.216; with ralimetinib, inactive: 0.038; in test [5], inactive: -0.014; in test [2], active: -0.432. Moreover, the log2 fold change in test [3] was inactive: -0.036; with pinometostat, inactive: 0.013; in test [4] it was inactive: 0.062.
In the case of STAM2 (UniProt O75886), the log2 fold change was inactive: 0.033 in the test with IRAK-1-4 Inhibitor I; inactive: 0.008 with ibrutinib; inactive: -0.018 in test [1]; inactive: 0.034 in the test with ralimetinib; inactive: 0.038 in test [5]; inactive: -0.131 in [2]. Besides, the figures for the log2 fold change (in test [3]; with pinometostat; in [4]) were inactive: 0.018, inactive: 0.014 and inactive: 0.004, respectively.
Regarding STARD9 (UniProt Q9P2P6), the log2 fold change is inactive: -0.121 with IRAK-1-4 Inhibitor I; inactive: 0.161 in the test with ibrutinib; inactive: 0.091 in test [1]; inactive: 0.068 with ralimetinib; inactive: -0.156 in test [5]; inactive: -0.066 in [2]. The log2 fold change is inactive: 0.085 in [3], inactive: 0.083 with pinometostat and inactive: -0.07 in [4].
As for SPTBN4 (UniProt Q9H254), the log2 fold change was inactive: -0.008 in the test with IRAK-1-4 Inhibitor I; inactive: 0.1 with ibrutinib; inactive: -0.06 in test [1]; inactive: -0.032 with ralimetinib; inactive: -0.025 in test [5]; active: -0.671 in test [2]. In addition, the figures for the log2 fold change (in test [3]; with pinometostat; in [4]) were inactive: -0.07, inactive: -0.007 and inactive: -0.016, respectively.
With SQSTM1 (UniProt Q13501), the log2 fold change was inactive: -0.006 with IRAK-1-4 Inhibitor I; inactive: 0.012 with ibrutinib; active: -0.298 in [1]; inactive: -0.026 with ralimetinib; inactive: 0.058 in test [5]; inactive: -0.118 in [2]. The log2 fold change in test [3] is inactive: 0.039; with pinometostat it was inactive: 0.048; in [4], inactive: -0.079.
STARD3 (UniProt Q14849): the log2 fold change with IRAK-1-4 Inhibitor I is inactive: -0.075; with ibrutinib, inactive: 0.23; in test [1], inactive: -0.033; with ralimetinib, inactive: 0.033; in [5], inactive: -0.075; in test [2], active: -0.429. In addition, the log2 fold change in test [3] is inactive: 0.122; in the test with pinometostat, inactive: 0; in test [4] it was inactive: -0.044.

Values taken from the supplement of paper PMC10849652.
